# Assay results published in publication PMC3963067.
# Chains of the proteins cited; added tags and fusions are not shown. Lines headed by an entry give the natural chain unless they say otherwise; changes in a name come on top.
# UniProt Q63HN8: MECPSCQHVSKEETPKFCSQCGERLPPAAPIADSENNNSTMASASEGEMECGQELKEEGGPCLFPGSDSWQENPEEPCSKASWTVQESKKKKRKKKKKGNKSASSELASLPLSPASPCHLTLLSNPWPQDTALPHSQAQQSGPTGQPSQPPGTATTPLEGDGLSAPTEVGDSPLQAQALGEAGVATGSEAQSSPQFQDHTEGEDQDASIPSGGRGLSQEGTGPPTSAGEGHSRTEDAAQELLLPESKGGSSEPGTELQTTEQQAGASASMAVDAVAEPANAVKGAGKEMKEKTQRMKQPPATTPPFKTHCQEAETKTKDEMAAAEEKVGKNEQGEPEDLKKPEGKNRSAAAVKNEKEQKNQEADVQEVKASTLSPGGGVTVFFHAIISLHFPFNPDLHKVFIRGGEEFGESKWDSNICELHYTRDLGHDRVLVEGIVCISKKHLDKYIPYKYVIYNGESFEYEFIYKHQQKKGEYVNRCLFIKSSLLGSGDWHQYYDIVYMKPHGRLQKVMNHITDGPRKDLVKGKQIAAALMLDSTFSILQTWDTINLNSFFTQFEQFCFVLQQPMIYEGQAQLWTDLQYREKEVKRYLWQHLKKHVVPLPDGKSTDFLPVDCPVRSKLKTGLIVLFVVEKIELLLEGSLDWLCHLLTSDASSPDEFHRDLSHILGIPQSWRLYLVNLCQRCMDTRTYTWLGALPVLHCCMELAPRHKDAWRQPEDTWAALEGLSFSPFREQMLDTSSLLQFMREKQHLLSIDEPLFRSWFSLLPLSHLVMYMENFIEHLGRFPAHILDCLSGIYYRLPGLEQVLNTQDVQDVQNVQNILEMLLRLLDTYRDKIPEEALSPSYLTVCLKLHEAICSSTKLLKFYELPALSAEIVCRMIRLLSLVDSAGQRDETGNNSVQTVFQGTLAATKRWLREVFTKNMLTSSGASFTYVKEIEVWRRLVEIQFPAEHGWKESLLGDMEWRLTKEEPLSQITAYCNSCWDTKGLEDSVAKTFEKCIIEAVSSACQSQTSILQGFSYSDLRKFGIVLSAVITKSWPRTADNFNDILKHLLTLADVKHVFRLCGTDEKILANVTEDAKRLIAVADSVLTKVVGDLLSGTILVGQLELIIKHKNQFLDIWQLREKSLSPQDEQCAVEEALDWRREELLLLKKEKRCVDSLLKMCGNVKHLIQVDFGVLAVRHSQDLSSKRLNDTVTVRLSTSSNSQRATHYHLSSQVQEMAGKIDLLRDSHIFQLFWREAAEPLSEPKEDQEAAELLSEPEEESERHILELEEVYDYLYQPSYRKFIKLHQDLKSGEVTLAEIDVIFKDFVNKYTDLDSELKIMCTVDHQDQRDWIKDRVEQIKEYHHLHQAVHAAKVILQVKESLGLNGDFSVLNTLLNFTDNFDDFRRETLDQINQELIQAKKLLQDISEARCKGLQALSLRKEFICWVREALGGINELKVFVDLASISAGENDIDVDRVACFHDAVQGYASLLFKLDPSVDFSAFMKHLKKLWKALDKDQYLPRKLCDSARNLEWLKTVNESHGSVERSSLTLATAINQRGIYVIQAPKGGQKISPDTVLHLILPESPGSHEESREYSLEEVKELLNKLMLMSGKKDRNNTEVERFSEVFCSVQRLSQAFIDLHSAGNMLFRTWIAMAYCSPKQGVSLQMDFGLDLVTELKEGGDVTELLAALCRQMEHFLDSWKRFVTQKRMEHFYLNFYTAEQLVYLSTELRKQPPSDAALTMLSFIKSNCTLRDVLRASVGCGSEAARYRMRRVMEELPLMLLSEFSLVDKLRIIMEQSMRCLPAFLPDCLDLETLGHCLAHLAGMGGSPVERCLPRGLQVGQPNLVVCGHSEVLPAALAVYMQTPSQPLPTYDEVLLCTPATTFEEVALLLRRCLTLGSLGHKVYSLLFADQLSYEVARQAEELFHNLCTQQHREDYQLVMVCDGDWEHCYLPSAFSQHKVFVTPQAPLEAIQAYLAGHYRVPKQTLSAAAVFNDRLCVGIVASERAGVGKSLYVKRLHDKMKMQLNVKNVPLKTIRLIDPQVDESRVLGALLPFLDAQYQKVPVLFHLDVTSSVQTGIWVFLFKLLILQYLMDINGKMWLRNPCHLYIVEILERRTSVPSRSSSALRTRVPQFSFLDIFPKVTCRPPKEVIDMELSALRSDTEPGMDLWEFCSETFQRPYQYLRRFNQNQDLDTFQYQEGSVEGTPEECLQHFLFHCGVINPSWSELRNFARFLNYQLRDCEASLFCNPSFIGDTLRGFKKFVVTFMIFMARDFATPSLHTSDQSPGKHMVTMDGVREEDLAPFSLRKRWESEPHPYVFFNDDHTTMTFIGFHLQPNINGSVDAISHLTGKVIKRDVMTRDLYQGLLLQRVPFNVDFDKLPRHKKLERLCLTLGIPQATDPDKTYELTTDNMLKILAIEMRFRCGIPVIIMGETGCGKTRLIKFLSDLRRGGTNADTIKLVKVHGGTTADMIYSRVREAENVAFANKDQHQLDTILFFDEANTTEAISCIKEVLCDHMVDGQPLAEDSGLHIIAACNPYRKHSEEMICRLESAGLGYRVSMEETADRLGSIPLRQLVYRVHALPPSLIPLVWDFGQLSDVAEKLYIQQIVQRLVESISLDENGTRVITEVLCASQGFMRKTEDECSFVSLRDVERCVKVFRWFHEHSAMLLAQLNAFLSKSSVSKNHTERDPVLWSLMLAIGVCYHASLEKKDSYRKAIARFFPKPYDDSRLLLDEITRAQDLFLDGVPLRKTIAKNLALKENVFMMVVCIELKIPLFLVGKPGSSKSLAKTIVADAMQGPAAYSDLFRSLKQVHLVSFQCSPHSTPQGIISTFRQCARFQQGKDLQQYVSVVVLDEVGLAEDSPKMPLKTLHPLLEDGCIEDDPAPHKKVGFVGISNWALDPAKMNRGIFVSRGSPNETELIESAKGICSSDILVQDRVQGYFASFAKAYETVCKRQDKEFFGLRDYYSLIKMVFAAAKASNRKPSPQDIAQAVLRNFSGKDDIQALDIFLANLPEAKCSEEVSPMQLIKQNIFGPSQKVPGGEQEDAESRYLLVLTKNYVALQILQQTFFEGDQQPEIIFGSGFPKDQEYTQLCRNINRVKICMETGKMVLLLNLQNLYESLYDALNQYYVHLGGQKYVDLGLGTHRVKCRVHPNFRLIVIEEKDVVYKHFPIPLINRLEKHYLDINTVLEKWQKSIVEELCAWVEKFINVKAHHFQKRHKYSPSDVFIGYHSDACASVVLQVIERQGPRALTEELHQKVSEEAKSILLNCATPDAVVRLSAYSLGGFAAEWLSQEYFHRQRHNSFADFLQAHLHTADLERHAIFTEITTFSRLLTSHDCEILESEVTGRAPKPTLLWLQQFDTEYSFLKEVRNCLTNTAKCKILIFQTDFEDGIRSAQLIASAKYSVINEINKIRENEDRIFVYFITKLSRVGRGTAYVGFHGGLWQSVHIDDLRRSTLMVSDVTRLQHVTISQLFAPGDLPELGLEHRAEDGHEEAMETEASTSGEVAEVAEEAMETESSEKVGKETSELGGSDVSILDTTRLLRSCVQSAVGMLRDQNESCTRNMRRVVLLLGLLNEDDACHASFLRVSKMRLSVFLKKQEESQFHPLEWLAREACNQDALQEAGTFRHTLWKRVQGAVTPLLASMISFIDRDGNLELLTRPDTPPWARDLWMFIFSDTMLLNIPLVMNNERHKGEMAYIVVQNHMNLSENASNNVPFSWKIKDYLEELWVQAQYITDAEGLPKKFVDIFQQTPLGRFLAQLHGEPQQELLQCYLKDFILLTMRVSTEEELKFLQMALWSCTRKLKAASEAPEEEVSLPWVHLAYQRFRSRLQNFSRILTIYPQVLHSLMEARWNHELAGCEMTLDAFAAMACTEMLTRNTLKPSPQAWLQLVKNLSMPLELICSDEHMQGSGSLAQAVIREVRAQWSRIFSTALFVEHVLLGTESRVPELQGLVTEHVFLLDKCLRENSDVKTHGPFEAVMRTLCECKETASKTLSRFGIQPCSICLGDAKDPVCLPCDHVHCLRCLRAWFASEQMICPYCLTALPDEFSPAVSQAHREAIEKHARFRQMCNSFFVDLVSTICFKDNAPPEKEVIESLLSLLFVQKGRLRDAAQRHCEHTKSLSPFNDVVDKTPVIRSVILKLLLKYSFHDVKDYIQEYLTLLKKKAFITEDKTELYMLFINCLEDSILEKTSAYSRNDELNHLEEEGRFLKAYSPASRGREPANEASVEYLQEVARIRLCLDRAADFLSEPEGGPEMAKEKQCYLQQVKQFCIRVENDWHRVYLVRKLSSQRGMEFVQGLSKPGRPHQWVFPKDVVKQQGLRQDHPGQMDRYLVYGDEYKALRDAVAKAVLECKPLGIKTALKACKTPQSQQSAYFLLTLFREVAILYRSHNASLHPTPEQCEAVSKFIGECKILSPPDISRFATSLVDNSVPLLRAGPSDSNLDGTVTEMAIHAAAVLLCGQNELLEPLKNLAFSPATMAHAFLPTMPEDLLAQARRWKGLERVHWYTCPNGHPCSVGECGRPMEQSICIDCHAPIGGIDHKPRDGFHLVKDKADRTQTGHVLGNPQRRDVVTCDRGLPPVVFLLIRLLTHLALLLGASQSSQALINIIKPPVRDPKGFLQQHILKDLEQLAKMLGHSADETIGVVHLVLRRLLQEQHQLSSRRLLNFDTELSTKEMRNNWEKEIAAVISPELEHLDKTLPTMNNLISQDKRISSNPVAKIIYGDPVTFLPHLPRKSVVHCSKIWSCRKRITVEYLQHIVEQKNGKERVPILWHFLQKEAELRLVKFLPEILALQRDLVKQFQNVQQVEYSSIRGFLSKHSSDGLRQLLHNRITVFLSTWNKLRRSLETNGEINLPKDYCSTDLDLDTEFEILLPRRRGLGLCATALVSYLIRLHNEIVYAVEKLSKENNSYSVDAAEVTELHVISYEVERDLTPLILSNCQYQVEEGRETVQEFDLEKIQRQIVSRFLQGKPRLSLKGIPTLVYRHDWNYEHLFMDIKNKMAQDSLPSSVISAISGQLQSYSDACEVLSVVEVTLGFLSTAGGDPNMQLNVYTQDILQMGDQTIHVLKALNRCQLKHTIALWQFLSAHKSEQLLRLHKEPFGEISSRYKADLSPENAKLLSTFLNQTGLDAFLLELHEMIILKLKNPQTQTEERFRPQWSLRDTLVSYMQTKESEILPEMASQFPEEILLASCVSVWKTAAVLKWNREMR
# Results are given in words; binding and its absence hold for the method and conditions named. Binding seen in cells or lysates may run through a third protein. Some results given as binding are weak or reduced against the parent protein; the word gives no strength.
# Key:
# Assay in all cases: co-IP; two differently tagged copies (C-terminal 3 × FLAG and cMyc) co-expressed in HEK-293 cells; lysate immunoprecipitated with anti-FLAG antibody, immunoblot with anti-Myc antibody; lysis buffer 1% NP-40, 150 mM KCl, 50 mM HEPES-NaOH pH 7.5
# [1] = biological target: mysterin A1A2 mutant (both Walker A motifs mutated), 3 × FLAG- and Myc-tagged copies (human) (UniProt Q63HN8)
# [2] = biological target: mysterin A1B1A2B2 mutant (all four Walker motifs mutated), 3 × FLAG- and Myc-tagged copies (human) (UniProt Q63HN8)
# [3] = biological target: mysterin A1B2 mutant (first Walker A and second Walker B motifs mutated), 3 × FLAG- and Myc-tagged copies (human) (UniProt Q63HN8)
# [4] = biological target: mysterin A2 single mutant (second Walker A motif mutated), 3 × FLAG- and Myc-tagged copies (human) (UniProt Q63HN8)
# [5] = biological target: mysterin A2B2 mutant (second Walker A and B motifs mutated), 3 × FLAG- and Myc-tagged copies (human) (UniProt Q63HN8)
# [6] = biological target: mysterin B1B2 mutant (both Walker B motifs mutated), 3 × FLAG- and Myc-tagged copies (human) (UniProt Q63HN8)
# [7] = biological target: mysterin B2 single mutant (second Walker B motif mutated), 3 × FLAG- and Myc-tagged copies (human) (UniProt Q63HN8)
# [8] = biological target: mysterin R4810K (disease-associated variant) (human) (UniProt Q63HN8)
substance,measurement,setting,value
"mysterin A1A2 mutant (both Walker A motifs mutated), 3 × FLAG- and Myc-tagged copies (from UniProt Q63HN8 1-5207)",binding,[1],binds
"mysterin A1B1A2B2 mutant (all four Walker motifs mutated), 3 × FLAG- and Myc-tagged copies (from UniProt Q63HN8 1-5207)",binding,[2],binds
"mysterin A1B2 mutant (first Walker A and second Walker B motifs mutated), 3 × FLAG- and Myc-tagged copies (from UniProt Q63HN8 1-5207)",binding,[3],binds
"mysterin A2 single mutant (second Walker A motif mutated), 3 × FLAG- and Myc-tagged copies (from UniProt Q63HN8 1-5207)",binding,[4],binds
"mysterin A2B2 mutant (second Walker A and B motifs mutated), 3 × FLAG- and Myc-tagged copies (from UniProt Q63HN8 1-5207)",binding,[5],binds
"mysterin B1B2 mutant (both Walker B motifs mutated), 3 × FLAG- and Myc-tagged copies (from UniProt Q63HN8 1-5207)",binding,[6],binds
"mysterin B2 single mutant (second Walker B motif mutated), 3 × FLAG- and Myc-tagged copies (from UniProt Q63HN8 1-5207)",binding,[7],binds
mysterin R4810K (disease-associated variant) (from UniProt Q63HN8 1-5207),binding,[8],binds
